Data: patent publication US7326733B2, “Methods for increasing bone density” (The Forsyth Institute, priority 2003, dated 2008)

Key:
unstimulated RAW 264.7 = settings: unstimulated RAW 264.7, fluoxetine
Protocol: RAW 264.7 mouse macrophage/monocytes (TIB-71) were purchased from ATCC (Manassas, Va.). Cells were cultured in DMEM/1.5 g/l sodium bicarbonate (JRH Biosciences, Lenexa, Kans.) plus 10% non-heat-inactivated FBS (Invitrogen Corporation Carlsbad, Calif.). When needed, 5-HT was stripped from the FBS by incubating it twice in 0.25% Dextran-coated charcoal (Sigma-Aldrich, St. Louis, Mo.) for 30 minutes at 45° C. Recombinant mouse soluble RANKL (Immunex Corp., Seattle, Wash.) was added at a concentration of 10 ng/ml. Recombinant murine RANKL is an NH2-terminal fusion of a leucine zipper trimerization domain (Fanslow et al., 1994, Semin. Immunol. 6(5):267-278) with residues 134-316 of murine RANKL. […] Cultures were also exposed to the VMAT inhibitor reserpine and the MAO-B inhibitor pargylline (Sigma-Aldrich, St. Louis, Mo.), at the indicated concentrations for 4 days. Mouse bone marrow cells were obtained from long bones of 2-week old C57B1 mice and cultured for 7 days in αMEM/FBS supplemented with 50 ng/ml RANKL and 50 ng/ml human M-CSF (PeproTech Inc., Rocky Hill, N.J.).

IκBA = settings: fluoxetine-treated RANKL-stimulated cells compared to cells without fluoxetine

With `CNCCC(Oc1ccc(C(F)(F)F)cc1)c1ccccc1.Cl` (racemic) [fluoxetine, (+/−)—N-methyl-3-phenyl-3-[(α,α,α-trifluoro-p-tolyl)oxy]propylamine hydrochloride] the proliferation (unstimulated RAW 264.7) was “unaffected” and the “levels of the inhibitor IκBA” value (IκBA) was “elevated”.
